The supplement of paper PMC10849652
The list shows a part of the results. Residues, ends and D or L forms follow the SMILES beside them. *: point of attachment. Cbz = O=C(OCc1ccccc1)*

Protein sequences, listed by entry. Tags and fused reporters are not part of them. Lines headed by an entry give the natural chain unless they say otherwise; changes in a name come on top.
UniProt Q86XI2: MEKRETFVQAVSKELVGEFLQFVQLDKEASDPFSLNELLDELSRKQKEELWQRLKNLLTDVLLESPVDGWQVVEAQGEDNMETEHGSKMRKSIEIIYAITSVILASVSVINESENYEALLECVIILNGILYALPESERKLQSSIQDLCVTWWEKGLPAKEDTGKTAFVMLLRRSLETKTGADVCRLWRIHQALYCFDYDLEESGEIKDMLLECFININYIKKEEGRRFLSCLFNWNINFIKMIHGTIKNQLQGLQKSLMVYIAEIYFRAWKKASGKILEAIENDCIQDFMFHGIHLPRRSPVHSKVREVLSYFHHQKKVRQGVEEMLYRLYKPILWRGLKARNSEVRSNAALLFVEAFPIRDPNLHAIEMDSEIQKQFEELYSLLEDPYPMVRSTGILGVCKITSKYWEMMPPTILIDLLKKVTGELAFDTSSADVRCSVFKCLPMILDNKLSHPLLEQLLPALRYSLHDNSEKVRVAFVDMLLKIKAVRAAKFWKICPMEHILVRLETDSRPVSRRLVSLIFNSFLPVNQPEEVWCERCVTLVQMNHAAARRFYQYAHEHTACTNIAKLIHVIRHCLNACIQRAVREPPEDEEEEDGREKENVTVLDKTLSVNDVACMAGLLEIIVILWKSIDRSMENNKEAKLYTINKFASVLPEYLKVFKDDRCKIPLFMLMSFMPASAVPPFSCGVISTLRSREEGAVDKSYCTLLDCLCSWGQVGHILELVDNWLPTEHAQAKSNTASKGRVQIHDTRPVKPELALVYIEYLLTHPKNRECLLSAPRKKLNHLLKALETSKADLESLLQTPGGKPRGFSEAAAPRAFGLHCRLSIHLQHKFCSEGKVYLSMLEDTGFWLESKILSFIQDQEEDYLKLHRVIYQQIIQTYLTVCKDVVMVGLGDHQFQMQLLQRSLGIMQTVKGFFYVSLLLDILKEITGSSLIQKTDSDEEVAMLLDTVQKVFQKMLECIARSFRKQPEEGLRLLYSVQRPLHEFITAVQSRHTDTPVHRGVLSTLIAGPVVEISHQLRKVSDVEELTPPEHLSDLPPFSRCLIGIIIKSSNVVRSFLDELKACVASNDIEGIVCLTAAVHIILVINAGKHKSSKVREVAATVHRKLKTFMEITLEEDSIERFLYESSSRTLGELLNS
UniProt O95168, whole entry, looked up: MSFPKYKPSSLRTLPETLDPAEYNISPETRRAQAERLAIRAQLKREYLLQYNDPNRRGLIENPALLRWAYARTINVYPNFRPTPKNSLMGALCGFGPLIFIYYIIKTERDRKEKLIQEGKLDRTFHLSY
UniProt Q96HR8: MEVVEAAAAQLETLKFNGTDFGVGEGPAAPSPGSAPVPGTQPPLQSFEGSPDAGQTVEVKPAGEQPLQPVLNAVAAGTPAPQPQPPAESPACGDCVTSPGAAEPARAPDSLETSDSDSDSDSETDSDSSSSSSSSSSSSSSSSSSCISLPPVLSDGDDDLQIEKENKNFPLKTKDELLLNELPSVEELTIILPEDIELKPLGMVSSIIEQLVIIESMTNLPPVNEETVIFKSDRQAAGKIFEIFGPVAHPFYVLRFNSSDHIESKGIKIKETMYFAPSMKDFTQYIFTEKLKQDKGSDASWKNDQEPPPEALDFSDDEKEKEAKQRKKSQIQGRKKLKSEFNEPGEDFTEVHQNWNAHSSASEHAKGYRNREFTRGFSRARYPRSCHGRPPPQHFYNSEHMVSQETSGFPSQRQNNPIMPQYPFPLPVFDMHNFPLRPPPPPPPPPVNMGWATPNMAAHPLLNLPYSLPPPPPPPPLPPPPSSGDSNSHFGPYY
UniProt P41227: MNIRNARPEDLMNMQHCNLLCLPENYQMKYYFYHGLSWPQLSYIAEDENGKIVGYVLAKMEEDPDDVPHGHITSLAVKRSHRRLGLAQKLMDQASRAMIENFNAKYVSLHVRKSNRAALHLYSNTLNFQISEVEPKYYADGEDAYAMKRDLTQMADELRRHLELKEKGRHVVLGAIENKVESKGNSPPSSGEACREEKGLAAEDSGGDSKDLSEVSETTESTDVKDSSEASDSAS
UniProt P28331, whole entry, looked up: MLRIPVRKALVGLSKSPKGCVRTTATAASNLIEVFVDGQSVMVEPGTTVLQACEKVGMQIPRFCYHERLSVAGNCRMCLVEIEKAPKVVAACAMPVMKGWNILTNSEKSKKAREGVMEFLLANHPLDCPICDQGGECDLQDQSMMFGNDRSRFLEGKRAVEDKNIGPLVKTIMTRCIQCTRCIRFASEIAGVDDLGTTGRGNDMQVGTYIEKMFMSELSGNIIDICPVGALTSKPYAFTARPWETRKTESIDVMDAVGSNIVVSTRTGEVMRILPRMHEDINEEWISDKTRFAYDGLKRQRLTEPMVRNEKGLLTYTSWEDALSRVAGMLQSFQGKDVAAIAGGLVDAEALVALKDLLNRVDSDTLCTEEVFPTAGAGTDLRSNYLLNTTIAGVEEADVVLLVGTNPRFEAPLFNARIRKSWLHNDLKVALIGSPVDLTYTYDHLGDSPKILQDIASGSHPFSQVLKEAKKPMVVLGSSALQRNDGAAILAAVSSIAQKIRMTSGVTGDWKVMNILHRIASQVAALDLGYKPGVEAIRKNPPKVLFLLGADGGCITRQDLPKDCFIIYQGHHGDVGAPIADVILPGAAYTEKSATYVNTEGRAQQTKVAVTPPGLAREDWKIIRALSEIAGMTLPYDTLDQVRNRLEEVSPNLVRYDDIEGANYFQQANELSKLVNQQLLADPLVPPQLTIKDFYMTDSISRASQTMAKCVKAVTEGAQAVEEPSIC
UniProt Q6NZ67, whole entry, looked up: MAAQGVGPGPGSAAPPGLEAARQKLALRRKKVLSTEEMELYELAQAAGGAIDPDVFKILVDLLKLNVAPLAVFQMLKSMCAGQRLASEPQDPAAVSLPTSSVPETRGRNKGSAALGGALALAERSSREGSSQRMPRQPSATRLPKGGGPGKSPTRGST
UniProt Q9UHQ1: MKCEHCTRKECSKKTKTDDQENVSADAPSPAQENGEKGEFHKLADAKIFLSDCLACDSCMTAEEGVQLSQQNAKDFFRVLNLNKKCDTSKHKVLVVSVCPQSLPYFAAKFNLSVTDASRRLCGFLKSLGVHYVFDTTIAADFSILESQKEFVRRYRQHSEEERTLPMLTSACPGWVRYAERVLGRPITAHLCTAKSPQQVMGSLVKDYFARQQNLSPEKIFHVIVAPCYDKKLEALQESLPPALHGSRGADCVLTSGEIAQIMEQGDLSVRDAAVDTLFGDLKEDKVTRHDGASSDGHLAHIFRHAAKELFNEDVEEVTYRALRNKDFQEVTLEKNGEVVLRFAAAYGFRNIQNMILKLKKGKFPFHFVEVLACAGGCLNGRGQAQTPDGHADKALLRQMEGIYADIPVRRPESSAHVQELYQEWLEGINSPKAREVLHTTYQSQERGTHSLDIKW
UniProt Q16718, whole entry, looked up: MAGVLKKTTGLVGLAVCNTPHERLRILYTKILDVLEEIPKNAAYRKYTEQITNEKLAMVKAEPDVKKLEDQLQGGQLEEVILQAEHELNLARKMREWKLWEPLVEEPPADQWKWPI
UniProt P12036: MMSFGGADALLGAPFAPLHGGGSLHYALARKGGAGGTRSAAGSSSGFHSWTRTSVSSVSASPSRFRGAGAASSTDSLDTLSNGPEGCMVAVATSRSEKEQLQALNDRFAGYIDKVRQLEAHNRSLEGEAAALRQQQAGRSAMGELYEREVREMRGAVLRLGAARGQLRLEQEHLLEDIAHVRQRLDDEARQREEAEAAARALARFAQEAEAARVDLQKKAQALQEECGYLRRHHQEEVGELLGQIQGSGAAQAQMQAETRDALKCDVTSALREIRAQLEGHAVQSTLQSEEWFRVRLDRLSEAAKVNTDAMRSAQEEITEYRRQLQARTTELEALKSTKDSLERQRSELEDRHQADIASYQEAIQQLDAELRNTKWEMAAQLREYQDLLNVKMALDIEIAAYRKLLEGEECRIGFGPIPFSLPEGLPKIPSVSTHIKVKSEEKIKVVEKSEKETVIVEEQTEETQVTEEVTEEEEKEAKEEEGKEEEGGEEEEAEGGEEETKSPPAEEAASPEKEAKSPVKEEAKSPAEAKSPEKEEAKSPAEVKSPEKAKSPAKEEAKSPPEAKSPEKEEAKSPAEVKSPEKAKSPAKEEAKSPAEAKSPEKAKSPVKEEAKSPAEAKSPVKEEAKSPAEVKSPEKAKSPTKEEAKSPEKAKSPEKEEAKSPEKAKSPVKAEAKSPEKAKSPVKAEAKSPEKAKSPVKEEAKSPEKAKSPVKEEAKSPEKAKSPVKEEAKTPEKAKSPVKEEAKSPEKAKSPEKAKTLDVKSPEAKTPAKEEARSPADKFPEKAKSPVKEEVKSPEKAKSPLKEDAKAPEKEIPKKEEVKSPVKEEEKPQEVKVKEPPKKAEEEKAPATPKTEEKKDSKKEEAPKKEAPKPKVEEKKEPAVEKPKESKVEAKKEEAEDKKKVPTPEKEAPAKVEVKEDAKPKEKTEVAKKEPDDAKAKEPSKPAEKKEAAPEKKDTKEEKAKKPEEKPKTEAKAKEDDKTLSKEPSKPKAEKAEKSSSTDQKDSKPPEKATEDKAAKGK
UniProt O43676, whole entry, looked up: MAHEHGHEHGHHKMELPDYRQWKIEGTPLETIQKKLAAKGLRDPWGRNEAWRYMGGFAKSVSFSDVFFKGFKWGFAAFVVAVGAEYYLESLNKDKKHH
UniProt Q5VZE5: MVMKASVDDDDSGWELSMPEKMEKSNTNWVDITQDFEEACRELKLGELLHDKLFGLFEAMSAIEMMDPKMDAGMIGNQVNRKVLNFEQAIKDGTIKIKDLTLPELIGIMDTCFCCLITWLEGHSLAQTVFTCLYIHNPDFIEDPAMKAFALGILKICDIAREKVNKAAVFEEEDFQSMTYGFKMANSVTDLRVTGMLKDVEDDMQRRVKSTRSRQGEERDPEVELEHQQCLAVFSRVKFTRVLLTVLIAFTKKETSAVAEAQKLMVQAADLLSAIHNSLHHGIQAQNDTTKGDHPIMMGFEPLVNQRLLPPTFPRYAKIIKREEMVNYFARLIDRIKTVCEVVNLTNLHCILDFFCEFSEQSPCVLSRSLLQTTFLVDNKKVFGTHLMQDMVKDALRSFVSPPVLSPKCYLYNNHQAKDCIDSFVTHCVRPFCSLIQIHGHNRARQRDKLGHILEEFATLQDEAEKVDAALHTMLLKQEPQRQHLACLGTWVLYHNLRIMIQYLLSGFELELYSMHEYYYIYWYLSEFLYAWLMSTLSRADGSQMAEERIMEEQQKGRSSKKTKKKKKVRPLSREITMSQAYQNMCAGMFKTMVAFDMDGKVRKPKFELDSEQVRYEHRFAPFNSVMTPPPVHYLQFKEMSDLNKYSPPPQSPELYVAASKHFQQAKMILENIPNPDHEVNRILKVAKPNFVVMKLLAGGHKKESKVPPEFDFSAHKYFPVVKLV
UniProt O95299, whole entry, looked up: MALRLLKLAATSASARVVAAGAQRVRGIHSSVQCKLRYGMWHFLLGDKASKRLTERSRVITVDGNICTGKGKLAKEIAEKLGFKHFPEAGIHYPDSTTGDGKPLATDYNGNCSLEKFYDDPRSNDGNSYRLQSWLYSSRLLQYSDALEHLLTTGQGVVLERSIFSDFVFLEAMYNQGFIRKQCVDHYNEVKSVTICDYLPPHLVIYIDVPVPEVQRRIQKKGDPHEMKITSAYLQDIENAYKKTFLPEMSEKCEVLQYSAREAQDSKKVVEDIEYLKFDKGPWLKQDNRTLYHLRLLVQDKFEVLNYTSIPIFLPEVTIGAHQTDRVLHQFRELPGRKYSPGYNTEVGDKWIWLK
UniProt P43490: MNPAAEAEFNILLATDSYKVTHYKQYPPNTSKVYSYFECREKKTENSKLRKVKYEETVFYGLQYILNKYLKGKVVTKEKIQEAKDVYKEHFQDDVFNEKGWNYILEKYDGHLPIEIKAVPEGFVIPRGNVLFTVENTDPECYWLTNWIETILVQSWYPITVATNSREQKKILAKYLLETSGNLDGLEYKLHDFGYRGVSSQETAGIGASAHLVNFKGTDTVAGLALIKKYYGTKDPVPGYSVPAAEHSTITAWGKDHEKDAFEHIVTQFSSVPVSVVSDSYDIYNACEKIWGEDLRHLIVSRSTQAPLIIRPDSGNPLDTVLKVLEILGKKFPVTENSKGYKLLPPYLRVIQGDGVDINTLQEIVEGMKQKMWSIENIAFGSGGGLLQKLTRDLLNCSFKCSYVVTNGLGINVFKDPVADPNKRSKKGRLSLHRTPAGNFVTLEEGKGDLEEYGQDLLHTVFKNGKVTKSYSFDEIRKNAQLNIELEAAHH

Legend:
Assay in all cases: log2 fold change, soluble protein after heating vs DMSO (PISA); higher = thermal stabilisation; K562 cells, 10 uM, 30 min; active = over 0.2 and 3.5 SD of the protein, either way, in both replicates (recomputed)
erlotinib = compound: C#Cc1cccc(Nc2ncnc3cc(OCCOC)c(OCCOC)cc23)c1 [erlotinib]
Method in brief: (§1)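 Quantification of soluble protein used TMTpro 16plex LC-MS/MS, with channel sums equalised. Samples were the supernatant after 21,000xg for 90 min of pooled aliquots from K562 cells (2×10^6 cells/mL) treated with 10 μM compound for 30 min, heated for 3 min over 48°C-58°C, and extracted in PBS with 0.5% NP-40 at 4°C. Values, from duplicates, describe thermal stability against control samples on a log2 fold-change scale.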

[1] = compound: C/C(=N\NC(=O)C1=CC(=CC=C1)S(=O)(=O)N2CCOCC2)/C3=C(C=CC(=C3)Cl)O
Method in brief: as §1

[2] = compound: C1=CC(=C(C=C1Cl)C2=NC3=NC=CN=C3C(=N2)NC4=CC=NC=C4)F
Method in brief: as §1

[3] = compound: C1=CC(=CC=C1C2=NC3=C(N2)C=C(C=C3)C(=O)N)OC4=CC=C(C=C4)Cl
Method in brief: as §1

[4] = compound: C1=CC2=C(C=CC(=C2)/C=C\3/C(=O)NC(=NCC4=CC=CS4)S3)N=C1
Method in brief: as §1

[5] = compound: C1=CC2=NC=CN=C2C=C1/C=C/3\C(=O)NC(=O)S3
Method in brief: as §1

[6] = compound: C1=CC=C(C=C1)C2=NC(=C(N2)C3=CC=NC=C3)C4=CC(=C(C=C4)Cl)O
Method in brief: as §1

[7] = compound: C1=CC=C2C(=C1)C3=NNC4=CC=CC(=C43)C2=O
Method in brief: as §1

[8] = compound: C1CCN(C1)C(=O)NC2=CC=CC(=C2)NC3=NC=C(C(=N3)NCCC4=CN=CN4)Br
Method in brief: as §1

[9] = compound: C1CN(CCC1(CC2=CC=C(C=C2)Cl)N)C3=NC=NC4=C3C=CN4
Method in brief: as §1

IRAK-1-4 Inhibitor I = compound: C1COCCN1CCN2C3=CC=CC=C3N=C2NC(=O)C4=CC(=CC=C4)[N+](=O)[O-] [IRAK-1-4 Inhibitor I]
Method in brief: as §1

ibrutinib = compound: C=CC(=O)N1CCC[C@@H](n2nc(-c3ccc(Oc4ccccc4)cc3)c3c(N)ncnc32)C1 [ibrutinib]
Method in brief: as §1

[10] = compound: CC(=O)c1cnc2ccc(-c3cc(Cl)c(O)c(Cl)c3)nc2c1N[C@H]1CC[C@H](CN(C)C)CC1
Method in brief: as §1

ralimetinib = compound: CC(C)(C)Cn1c(N)nc2ccc(-c3[nH]c(C(C)(C)C)nc3-c3ccc(F)cc3)nc21 [ralimetinib]
Method in brief: as §1

[11] = compound: CC(C)(O)CC(=O)NCCn1ccc2ncnc(Nc3ccc(Oc4cccc(C(F)(F)F)c4)c(Cl)c3)c21
Method in brief: as §1

[12] = compound: CC(C)C1=C2N=C(C=C(N2N=C1)NCC3=CC=CC=C3)NCCCCCCN
Method in brief: as §1

[13] = compound: CC(C)C[C@@H](C=O)NC(=O)[C@H](CC(C)C)NC(=O)[C@H](CC(C)C)NC(=O)OCc1ccccc1
Method in brief: as §1

pinometostat = compound: CC(C)N(C[C@H]1O[C@@H](n2cnc3c(N)ncnc32)[C@H](O)[C@@H]1O)[C@H]1C[C@@H](CCc2nc3cc(C(C)(C)C)ccc3[nH]2)C1 [pinometostat]
Method in brief: as §1

[14] = compound: CC1=C(C(CC(=O)N1)C2=CC=C(C=C2)C(F)(F)F)C(=O)NC3=C(C=C4C(=C3)C=NN4)F
Method in brief: as §1

[15] = compound: CC1=C(C2=C(C=C1)C(=O)C3=CC=CC=C3N2CCCN)C
Method in brief: as §1

Measured: log2 fold change

NCAPG2 isoform 2 (UniProt Q86XI2)
inactive: erlotinib 0.011 | [1] 0.086 | [2] -0.156 | [3] -0.225 | [4] 0.037 | [5] 0.06 | [6] -0.087 | [7] -0.044 | [8] -0.087 | [9] -0.295 | IRAK-1-4 Inhibitor I -0.096 | ibrutinib -0.006 | [10] 0.038 | ralimetinib 0.028 | [11] 0.014 | [12] -0.137 | [13] 0.198 | pinometostat -0.132 | [14] 0.128 | [15] 0.126

NDUFB4 (UniProt O95168)
inactive: erlotinib -0.016 | [1] -0.043 | [2] 0.015 | [3] 0.045 | [4] -0.019 | [5] -0.079 | [6] 0.019 | [7] 0.005 | [8] 0.019 | [9] -0.004 | IRAK-1-4 Inhibitor I 0.014 | ibrutinib 0.05 | [10] 0.02 | ralimetinib -0.03 | [11] -0.083 | [12] -0.065 | [13] 0.084 | pinometostat -0.048 | [14] 0.002 | [15] 0.036

NAF1 (UniProt Q96HR8)
inactive: erlotinib -0.067 | [1] 0.031 | [2] -0.091 | [3] 0.003 | [4] -0.038 | [5] 0.003 | [6] 0.025 | [7] 0.04 | [8] -0.149 | [9] -0.056 | IRAK-1-4 Inhibitor I -0.005 | ibrutinib 0.015 | [10] 0.078 | ralimetinib 0.043 | [11] 0.131 | [12] 0.031 | [13] 0.024 | pinometostat 0.029 | [14] -0.046 | [15] 0.093

NAA10 (UniProt P41227)
inactive: erlotinib -0.001 | [1] 0.098 | [2] 0.031 | [3] 0.037 | [4] -0.025 | [5] -0.084 | [6] 0.052 | [7] 0.003 | [8] -0.028 | [9] 0.015 | IRAK-1-4 Inhibitor I 0.013 | ibrutinib 0.005 | [10] -0.012 | ralimetinib -0.033 | [11] -0.034 | [12] -0.003 | [13] -0.016 | pinometostat -0.048 | [14] 0.009 | [15] 0.056

NDUFAB1 (UniProt O14561)
inactive: erlotinib -0.245 | [1] -0.13 | [2] 0.069 | [3] -0.005 | [4] -0.166 | [5] 0.063 | [6] 0.13 | [7] 0.132 | [8] -0.136 | [9] -0.223 | IRAK-1-4 Inhibitor I 0.001 | ibrutinib 0.031 | [10] 0.001 | ralimetinib -0.149 | [11] -0.022 | [12] 0.059 | [13] -0.135 | pinometostat -0.057 | [14] 0.012 | [15] 0.31

NDUFS1 isoform 2 (UniProt P28331)
inactive: erlotinib 0.009 | [1] -0.019 | [2] 0.049 | [3] 0.012 | [4] 0.069 | [5] 0.036 | [6] 0.033 | [7] 0.062 | [8] 0.003 | [9] 0.04 | IRAK-1-4 Inhibitor I 0.012 | ibrutinib -0.022 | [10] -0.004 | ralimetinib -0.011 | [11] -0.148 | [12] -0.041 | [13] 0.012 | pinometostat -0.008 | [14] 0 | [15] 0.099

Reprinted at random: 2 entries already listed.
NAA10 (UniProt P41227)
inactive: erlotinib -0.001 | [1] 0.098 | [2] 0.031 | [3] 0.037 | [4] -0.025 | [5] -0.084 | [6] 0.052 | [7] 0.003 | [8] -0.028 | [9] 0.015 | IRAK-1-4 Inhibitor I 0.013 | ibrutinib 0.005 | [10] -0.012 | ralimetinib -0.033 | [11] -0.034 | [12] -0.003 | [13] -0.016 | pinometostat -0.048 | [14] 0.009 | [15] 0.056

NDUFS1 isoform 2 (UniProt P28331)
inactive: erlotinib 0.009 | [1] -0.019 | [2] 0.049 | [3] 0.012 | [4] 0.069 | [5] 0.036 | [6] 0.033 | [7] 0.062 | [8] 0.003 | [9] 0.04 | IRAK-1-4 Inhibitor I 0.012 | ibrutinib -0.022 | [10] -0.004 | ralimetinib -0.011 | [11] -0.148 | [12] -0.041 | [13] 0.012 | pinometostat -0.008 | [14] 0 | [15] 0.099

(next part)

MZT2B (UniProt Q6NZ67)
inactive: erlotinib 0.03 | [1] -0.134 | [2] -0.016 | [3] 0.01 | [4] -0.112 | [5] 0.133 | [6] -0.018 | [7] 0.066 | [8] -0.059 | [9] -0.099 | IRAK-1-4 Inhibitor I -0.073 | ibrutinib -0.039 | [10] 0.061 | ralimetinib 0.062 | [11] -0.025 | [12] 0.053 | [13] 0.027 | pinometostat 0.005 | [14] 0.109 | [15] 0.108

NARF (UniProt Q9UHQ1)
inactive: erlotinib -0.011 | [1] 0.046 | [2] 0.059 | [3] -0.004 | [4] -0.029 | [5] 0.017 | [6] -0.005 | [7] -0.024 | [8] -0.043 | [9] 0.009 | IRAK-1-4 Inhibitor I -0.005 | ibrutinib 0.02 | [10] -0.004 | ralimetinib -0.055 | [11] 0 | [12] 0.035 | [13] 0.049 | pinometostat -0.039 | [14] -0.01 | [15] -0.058

NDUFA5 (UniProt Q16718)
inactive: erlotinib 0.049 | [1] 0.016 | [2] 0.15 | [3] 0.022 | [4] 0.111 | [5] 0.04 | [6] 0.055 | [7] 0.085 | [8] -0.022 | [9] -0.005 | IRAK-1-4 Inhibitor I -0.017 | ibrutinib 0.011 | [10] -0.079 | ralimetinib -0.09 | [11] -0.155 | [12] 0.064 | [13] 0.003 | pinometostat -0.06 | [14] 0.021 | [15] 0.216

NEFH (UniProt P12036)
inactive: erlotinib -0.011 | [1] -0.087 | [2] -0.375 | [3] -0.004 | [4] -0.166 | [5] 0.093 | [6] -0.151 | [7] -0.09 | [8] 0.006 | [9] -0.127 | IRAK-1-4 Inhibitor I -0.039 | ibrutinib 0.219 | [10] 0.166 | ralimetinib 0.283 | [11] 0.516 | [12] -0.032 | [13] 0.019 | pinometostat 0.25 | [14] 0.129 | [15] -0.187

NDUFB3 (UniProt O43676)
inactive: erlotinib -0.046 | [1] 0.028 | [2] -0.002 | [3] -0.033 | [4] -0.018 | [5] 0.036 | [6] 0.01 | [7] -0.054 | [8] 0.046 | [9] 0.055 | IRAK-1-4 Inhibitor I 0.027 | ibrutinib 0.031 | [10] -0.009 | ralimetinib -0.08 | [11] 0.05 | [12] -0.062 | [13] -0.028 | pinometostat -0.046 | [14] 0.017 | [15] -0.015

NAA35 (UniProt Q5VZE5)
inactive: erlotinib 0.018 | [1] 0.043 | [2] 0.078 | [3] 0.077 | [4] 0.025 | [5] 0 | [6] 0.027 | [7] 0.035 | [8] 0 | [9] 0.007 | IRAK-1-4 Inhibitor I 0.027 | ibrutinib 0.008 | [10] -0.065 | ralimetinib 0.019 | [11] -0.009 | [12] -0.049 | [13] -0.012 | pinometostat 0.039 | [14] 0.019 | [15] 0.068

NDC1 (UniProt Q9BTX1)
inactive: erlotinib -0.02 | [1] 0.075 | [2] 0.056 | [3] 0.03 | [4] 0.021 | [5] 0.001 | [6] 0.014 | [7] -0.107 | [8] -0.029 | [9] 0.007 | IRAK-1-4 Inhibitor I 0.02 | ibrutinib -0.018 | [10] -0.026 | ralimetinib -0.041 | [11] -0.009 | [12] -0.112 | [13] -0.007 | pinometostat 0.012 | [14] 0.01 | [15] -0.015

NDUFA10 (UniProt O95299)
inactive: erlotinib 0.001 | [1] 0.036 | [2] 0.068 | [3] 0.003 | [4] 0.024 | [5] 0.042 | [6] 0.026 | [7] 0.026 | [8] 0.016 | [9] 0.02 | IRAK-1-4 Inhibitor I 0.03 | ibrutinib -0.017 | [10] -0.052 | ralimetinib -0.07 | [11] -0.114 | [12] -0.076 | [13] 0.012 | pinometostat -0.003 | [14] 0.029 | [15] 0.065

NEBL (UniProt O76041)
inactive: erlotinib 0.012 | [1] -0.078 | [2] 0.021 | [3] -0.115 | [4] -0.054 | [5] -0.026 | [6] -0.004 | [7] -0.069 | [8] 0.044 | [9] 0.115 | IRAK-1-4 Inhibitor I 0.077 | ibrutinib 0.079 | [10] -0.199 | ralimetinib -0.076 | [11] 0.008 | [12] 0.069 | [13] 0.079 | pinometostat 0.04 | [14] -0.252 | [15] -0.033

NAMPT (UniProt P43490)
inactive: erlotinib -0.003 | [1] 0.007 | [2] 0.035 | [3] -0.018 | [4] 0.007 | [5] -0.003 | [6] 0.007 | [7] -0.004 | [8] 0.007 | [9] 0.034 | IRAK-1-4 Inhibitor I 0.031 | ibrutinib 0.027 | [10] 0.005 | ralimetinib -0.073 | [11] -0.009 | [12] 0.062 | [13] -0.011 | pinometostat -0.033 | [14] -0.003 | [15] 0.039
